Reference: publication PMC5325439
These are yes or no findings as the source states them, for the method shown. Binding seen in cells or lysates may run through a third protein. Some binding calls cover weakened binding; strength is not graded here. Tags and fused reporters may be left off the sequences shown. Values belong to the molecule of their own block, whether it stands above or below them.

Amino acid sequences for entries named in this document (tags omitted).
UniProt P05412: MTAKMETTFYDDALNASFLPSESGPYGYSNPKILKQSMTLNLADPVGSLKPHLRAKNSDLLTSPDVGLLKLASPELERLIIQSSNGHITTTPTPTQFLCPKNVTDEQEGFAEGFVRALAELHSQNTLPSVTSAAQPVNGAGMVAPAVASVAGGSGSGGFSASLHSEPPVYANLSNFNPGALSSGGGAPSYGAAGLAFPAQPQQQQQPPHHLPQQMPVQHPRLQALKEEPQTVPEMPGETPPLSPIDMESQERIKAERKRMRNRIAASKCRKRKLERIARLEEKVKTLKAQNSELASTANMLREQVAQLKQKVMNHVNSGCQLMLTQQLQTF

Legend:
[1] = molecular target: T1, His-tagged LASP1 (LIM and SH3 protein 1) (UniProt Q14847); experiment: pull-down; 500 ul MDA-MB-231-shLASP1 cell lysate (RIPA+ buffer) rotated with 2 ug His6-LASP1 for 2 h at 4°C, then magnetic His-beads 15 min at 4°C; washed with ice-cold PBS; Western blot; also tried with purified nucleus preparation; only the target purified
T1 sequence: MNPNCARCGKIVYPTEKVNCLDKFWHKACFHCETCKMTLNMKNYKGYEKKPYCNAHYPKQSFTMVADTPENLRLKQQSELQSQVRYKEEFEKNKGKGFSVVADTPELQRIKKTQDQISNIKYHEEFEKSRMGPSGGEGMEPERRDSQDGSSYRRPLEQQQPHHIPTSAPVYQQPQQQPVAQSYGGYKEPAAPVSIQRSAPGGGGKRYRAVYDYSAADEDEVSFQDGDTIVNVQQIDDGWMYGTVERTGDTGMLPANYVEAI

[2] = molecular target: T2, GST-tagged LASP1 (LIM and SH3 protein 1) (UniProt Q14847); experiment: condition: 2 μg GST-tagged LASP1 in 500 μl cell lysate; pull-down; 500 ul MDA-MB-231-shLASP1 cell lysate (RIPA+ buffer) incubated with 2 ug GST-tagged LASP1 for 1 h at 4°C, then 50 ul GST-sepharose beads 60 min; washed with ice-cold PBS; Western blot; also tried with purified nucleus preparation; only the target purified
T2 sequence: T1 sequence

- binding [2]: no binding
Molecule: c-Jun, endogenous (from UniProt P05412 1-331)
- binding [1]: no binding (tested: 2 μg His6-LASP1 in 500 μl cell lysate)

- binding [1]: binds
B1: zyxin, endogenous (protein, UniProt Q15942 1-572)
chain: MAAPRPSPAISVSVSAPAFYAPQKKFGPVVAPKPKVNPFRPGDSEPPPAPGAQRAQMGRVGEIPPPPPEDFPLPPPPLAGDGDDAEGALGGAFPPPPPPIEESFPPAPLEEEIFPSPPPPPEEEGGPEAPIPPPPQPREKVSSIDLEIDSLSSLLDDMTKNDPFKARVSSGYVPPPVATPFSSKSSTKPAAGGTAPLPPWKSPSSSQPLPQVPAPAQSQTQFHVQPQPQPKPQVQLHVQSQTQPVSLANTQPRGPPASSPAPAPKFSPVTPKFTPVASKFSPGAPGGSGSQPNQKLGHPEALSAGTGSPQPPSFTYAQQREKPRVQEKQHPVPPPAQNQNQVRSPGAPGPLTLKEVEELEQLTQQLMQDMEHPQRQNVAVNELCGRCHQPLARAQPAVRALGQLFHIACFTCHQCAQQLQGQQFYSLEGAPYCEGCYTDTLEKCNTCGEPITDRMLRATGKAYHPHCFTCVVCARPLEGTSFIVDQANRPHCVPDYHKQYAPRCSVCSEPIMPEPGRDETVRVVALDKNFHMKCYKCEDCGKPLSIEADDNGCFPLDGHVLCRKCHTARAQT
